The other results are listed elsewhere or left out.

By UniProt entry, the sequences of proteins in these tests, tags left out.
UniProt Q0JBA9, entry or part of it: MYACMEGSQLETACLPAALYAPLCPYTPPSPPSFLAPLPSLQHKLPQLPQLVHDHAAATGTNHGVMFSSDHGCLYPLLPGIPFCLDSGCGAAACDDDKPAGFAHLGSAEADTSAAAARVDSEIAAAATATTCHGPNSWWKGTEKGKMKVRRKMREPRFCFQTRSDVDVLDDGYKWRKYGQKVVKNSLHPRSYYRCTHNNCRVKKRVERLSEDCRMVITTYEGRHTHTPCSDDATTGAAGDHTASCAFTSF

For the assay, the target named is OsWRKY34 (Oryza sativa, UniProt Q0JBA9 1-250). The assay is described as follows: protein-binding microarray (RPBM); PBS, 2% BSA, 51.3 ng/ul salmon testes DNA, 50 uM zinc acetate, 200 nM TF, 25 C, 1 h; high values mean tight binding. As to conditions: protein: recombinant; tags: N-terminal polyhistidine and DsRed monomer fusion (pET32a); label: CyDye5-dUTP incorporated in the synthesized complementary strand; 3' TTTTT single-stranded linker to array surface; dsDNA, one strand shown. An outline of the steps: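 Binding signal here means per-feature fluorescence intensity in arbitrary units. The values were read on an Axon 4000B scanner after a custom Agilent array, double-stranded by primer extension with Cy5-dUTP, was incubated with 200 nM protein at 25 °C for 1 h in PBS with 2% BSA, salmon testes DNA and 50 µM zinc acetate, then washed. The proteins were transcription factors with an N-terminal polyhistidine tag and DsRed, expressed in E. coli BL21-CodonPlus and purified on Ni–NTA.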
With “GTCATCTTCTTTTTTTCTTTTGTGAGGTGTCCTAATAAAACGGAGTCACCTAGTGCAG”, the binding signal is 9230 fluorescence intensity (a.u.).
For “GCGTTTTTGTCTCTCTGCTCTCTGCTGCTGCTGCTGGGTCCGGAGTCACCTAGTGCAG”, the binding signal was 11300 fluorescence intensity (a.u.).
The same measure for “CCTCTCGCCCTTGTCTCGTTTCGCGGAGGAACCGAGGAAACGGAGTCACCTAGTGCAG”: 9880 fluorescence intensity (a.u.).
The same measure for “AATCAATGTCATTTTTGGTCAAATTTTGCTTTCCATTTTTCGGAGTCACCTAGTGCAG”: 12000 fluorescence intensity (a.u.); for “GACTTCCATTTTCTCTTATCCAGGCAAACCAAACAAGTCACGGAGTCACCTAGTGCAG”: 8050 fluorescence intensity (a.u.); for “CTCTGTCTATGATAATAAGGTTTTGGTTTGTTTCTAAGTTCGGAGTCACCTAGTGCAG”: 8420 fluorescence intensity (a.u.).
Regarding “TATGATTTTTTTCTTCTTCTTCTTCTTCTTCTTCTTCAAACGGAGTCACCTAGTGCAG”, the binding signal is 8980 fluorescence intensity (a.u.).
The same measure for “TCCACCCCGGCCGCTCTCCTCTGCATCCTCTGCCGGTGTCCGGAGTCACCTAGTGCAG”: 10300 fluorescence intensity (a.u.); for “TGGTCAATCAGGTTTGTCGTCCAGCCCGCATTTCCTTGCACGGAGTCACCTAGTGCAG”: 9340 fluorescence intensity (a.u.).
As to “CAAGCAATCCCACACTTCCTTTGCCGATCTCTTCTTTGCCCGGAGTCACCTAGTGCAG”, the binding signal is 8340 fluorescence intensity (a.u.).
With “CCCTTTTTCTAAACGATTTTCGTATGATTGTTTGCTACCTCGGAGTCACCTAGTGCAG” the figure was 8060 fluorescence intensity (a.u.); with “TTTGAGGTTGATTTTGAGGTTTTTTTTTTCATCGATGCTTCGGAGTCACCTAGTGCAG”, 8150 fluorescence intensity (a.u.).
With “GCCGCCGCTGTCGCCATCCACGCTCCGAGCGCCACTGCCACGGAGTCACCTAGTGCAG” the figure was 9610 fluorescence intensity (a.u.); with “CCGCCACGCGCCACCCATCTCTTCACCGCGTGCTGCCCTCCGGAGTCACCTAGTGCAG”, 9610 fluorescence intensity (a.u.).
The same measure for “CACATCACTCCATGCATCTACTCTCTAGTAATTATCCATGCGGAGTCACCTAGTGCAG”: 9610 fluorescence intensity (a.u.); for “TCATTTCGTCTTTAAATATCTAGTCTAGATTTAATCTCAACGGAGTCACCTAGTGCAG”: 8150 fluorescence intensity (a.u.).
Consider “ATGTTGGGAGAATAAATATTGCTGGAGGGGCTGGGGTATGCGGAGTCACCTAGTGCAG”, for which the binding signal is 8380 fluorescence intensity (a.u.).
The same measure for “TATTTGATGCCGTTGACTTTTTTAAATATGTTTGACCGTTCGGAGTCACCTAGTGCAG”: 20900 fluorescence intensity (a.u.); for “AAATTCCATGTCGTTGTTGTTTAACCGCCAGCAGTGGACTCGGAGTCACCTAGTGCAG”: 8560 fluorescence intensity (a.u.).
The same measure for “CATCACTGCGTTTTTTTTCCTTGAGTGCCTTTCTTCTTAGCGGAGTCACCTAGTGCAG”: 10400 fluorescence intensity (a.u.); for “CGCTATTTCGATGCCGTTGTCACAATGTCCTGGTTAGTCACGGAGTCACCTAGTGCAG”: 8480 fluorescence intensity (a.u.).
“AACTACACGGCCACACCCCATCTGATACTACTCTCATCTCCGGAGTCACCTAGTGCAG”: the binding signal was 8480 fluorescence intensity (a.u.).
For the sequence “TTGACACTCCACAGATGCTCCACTCATTCACCTTTACTAACGGAGTCACCTAGTGCAG”, the binding signal was 10100 fluorescence intensity (a.u.).
With “GATCCCAATCCACCATGCTCCAAACCCTTGTTGGCGCCGCCGGAGTCACCTAGTGCAG” the figure was 9240 fluorescence intensity (a.u.); with “ATATGGCTTCTTTTCTTTGCTTGTTTCGCTGCTGCAGCGACGGAGTCACCTAGTGCAG”, 9960 fluorescence intensity (a.u.).
Take “AGGTTATGCTCTTTACCCTATTTTTCTAATTCATTTTCTTCGGAGTCACCTAGTGCAG”: the binding signal is 8650 fluorescence intensity (a.u.).
The same measure for “TCACGGTGGGGTTTCCGGTATCTGTCAAGTTTTCTTGTTTCGGAGTCACCTAGTGCAG”: 8280 fluorescence intensity (a.u.); for “ACTTCTATCTCTCTAGATGATTTGGTCACTGCATTGACCGCGGAGTCACCTAGTGCAG”: 9950 fluorescence intensity (a.u.).
With “CCACCCATGCGGGCCCCACCCCACAGGAACCTACCCAACCCGGAGTCACCTAGTGCAG” the figure was 8390 fluorescence intensity (a.u.); with “GCCATCACCACCACCACCACCACCTCACCGCCGCCTCGCACGGAGTCACCTAGTGCAG”, 11800 fluorescence intensity (a.u.).
With “AATCTCCACCATCGATGGTCCGTACAATATTGAACAAATGCGGAGTCACCTAGTGCAG” the figure was 8800 fluorescence intensity (a.u.); with “GGGTGTGTGGTGTATAAATCGCCAGCCTGTAGGCATGTGACGGAGTCACCTAGTGCAG”, 9690 fluorescence intensity (a.u.).
With “TCCAACGGCATCCCGCAACCCACGTGTCCCTCACCGCGCGCGGAGTCACCTAGTGCAG”, the binding signal was 9080 fluorescence intensity (a.u.).
With “TGATCTAAAAATATTGTCTCTTGTCCTGTAGTTTGAATCACGGAGTCACCTAGTGCAG” the figure was 8270 fluorescence intensity (a.u.); with “ATGCAATCAACAAACTGTCATCATCTCCAAATTTGCTTCACGGAGTCACCTAGTGCAG”, 9610 fluorescence intensity (a.u.).
With “CTCGTATAGTTAGCTTGGAGGACTGAGCTTTGTGGGTGGGCGGAGTCACCTAGTGCAG” the figure was 8880 fluorescence intensity (a.u.); with “TATTCAAAGGTGTCGGTTCTTGCTATTAGCGCTCCCACGGCGGAGTCACCTAGTGCAG”, 8210 fluorescence intensity (a.u.); with “ACGGTTTCTCTATATTTTTTTAATGGTTAGATGTAAATATCGGAGTCACCTAGTGCAG”, 8650 fluorescence intensity (a.u.).
The same measure for “TCTCACTCACTCACACTGTCACTTCCACATTTTCTTTGCTCGGAGTCACCTAGTGCAG”: 11100 fluorescence intensity (a.u.); for “TACTCCCTCCGTATTTTAATGTATGACGCCGTTGACTTTTCGGAGTCACCTAGTGCAG”: 13900 fluorescence intensity (a.u.).
With “AGTGTTAATCTTACTCCTTGTTGTATATTGCTAAGTTTTTCGGAGTCACCTAGTGCAG”, the binding signal is 12900 fluorescence intensity (a.u.).
With “ACTCCAGCATGATCCACAACACCACTCACCTCATGATTTTCGGAGTCACCTAGTGCAG” the figure was 8770 fluorescence intensity (a.u.).

The values are drawn from paper PMC7819943, “Rice protein-binding microarrays: a tool to detect cis-acting elements near promoter regions in rice”.
